Values of other authors, collected in US20090318548A1, “PARA-QUINOL DERIVATIVES AND METHODS OF STEREO SELECTIVELY SYNTHESIZING AND USING SAME” (UNIVERSITY OF NORTHERN BRITISH COLUMBIA, priority 2006, published 2009).
At least one structure is not confirmed: it was looked up by name or label, or the drawing left a doubt.

The chains behind the UniProt entries cited, without tags or fusion partners. Where a name states a change or a piece, a line headed by the entry shows the natural chain unless it says otherwise.
UniProt Q45614: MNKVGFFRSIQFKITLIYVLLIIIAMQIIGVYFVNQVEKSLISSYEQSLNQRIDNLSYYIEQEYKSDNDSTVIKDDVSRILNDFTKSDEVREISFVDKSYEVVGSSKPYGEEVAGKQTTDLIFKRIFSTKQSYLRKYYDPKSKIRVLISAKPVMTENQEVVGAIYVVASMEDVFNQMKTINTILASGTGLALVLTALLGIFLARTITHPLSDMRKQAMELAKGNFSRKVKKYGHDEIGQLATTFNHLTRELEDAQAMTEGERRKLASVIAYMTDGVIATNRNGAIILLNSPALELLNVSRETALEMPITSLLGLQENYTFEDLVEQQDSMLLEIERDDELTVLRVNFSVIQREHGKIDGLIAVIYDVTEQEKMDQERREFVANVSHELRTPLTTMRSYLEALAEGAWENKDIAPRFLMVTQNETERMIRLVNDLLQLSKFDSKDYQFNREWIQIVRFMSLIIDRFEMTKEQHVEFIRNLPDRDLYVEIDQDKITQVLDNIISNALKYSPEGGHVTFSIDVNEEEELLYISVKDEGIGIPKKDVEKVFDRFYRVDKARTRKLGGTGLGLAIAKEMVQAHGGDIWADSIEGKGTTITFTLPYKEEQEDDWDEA

Molecular target: Bacillus subtilis YycG (Bacillus subtilis, UniProt Q45614)
Settings: established antibiotics as comparators

With `CC1COc2c(N3CCN(C)CC3)c(F)cc3c(=O)c(C(=O)O)cn1c23` (stereo not shown) [ofloxacin] as the compound, how does the “inhibition of Bacillus subtilis YycG (comparative experiments)” value read?
The value was “negligible inhibition”.
